The text below walks through data of doi:10.1101/2019.12.13.875419.

This series deals with PkKKT2a central domain (C646 C649A) (Perkinsela CCAP 1560/4). Kind of series: fluorescence anisotropy. The conditions noted are these: similar affinity to wild type. In general terms: Polarisation of emitted light reports the rotation of a fluorescent probe.

For at least one entry, the source does not settle the construct or the ends of the probe.

On to “TGCATGTTATGCAAGAATGCGTGTTTTACACCAAAACACCTTACATATTG (double strand) [50 mer CEN (BA1674)]”, for which the binding result is reported as “binds”.
